Values from PubChem BioAssay AID1159584 (Peter MacCallum Cancer Centre, 2016)
Here is an unselected part of about 18,000 deposited reagents. Not all columns of the deposit are shown. The record does not give: the amount of reagent, the time to read-out.

- Test: 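Knock-downs that harm CDH1-null cells more than parental MCF10A cells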 (primary screen)
- Cell system: human MCF10A breast epithelial cells, parental and CDH1-null
- Reagents: siRNA against human genes
- Detection: 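Cell viability by CellTiter-Glo ATP luminescence, each line scaled to the mean of mock wells across plates, then CDH1-null over parental ratio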
- Scale: CDH1-null / parental viability ratio: higher = CDH1-null cells survive relatively better than parental

With knock-down of OAZ3 (ornithine decarboxylase antizyme 3), the record shows CDH1-null / parental viability ratio 0.83.
Against PARP8 (poly(ADP-ribose) polymerase family member 8), the values are CDH1-null / parental viability ratio 1.01.
For GTF2E1 (general transcription factor IIE subunit 1) the deposit lists CDH1-null / parental viability ratio 0.86.
Depletion of RSAD2 (radical S-adenosyl methionine domain containing 2) came out at: CDH1-null / parental viability ratio 0.64.
MED26 (mediator complex subunit 26) showed CDH1-null / parental viability ratio 0.72.
Depletion of GNPNAT1 (glucosamine-phosphate N-acetyltransferase 1) resulted in: CDH1-null / parental viability ratio 0.74.
For PDE1C (phosphodiesterase 1C), the entry reads CDH1-null / parental viability ratio 0.96.
HLA-DRB1 (major histocompatibility complex, class II, DR beta 1) showed CDH1-null / parental viability ratio 0.84.
After knock-down of EFNB2 (ephrin B2), the screen gave CDH1-null / parental viability ratio 1.03.
Depletion of TNPO3 (transportin 3) resulted in: CDH1-null / parental viability ratio 1.5.
Against MALL (mal, T cell differentiation protein like), the values are CDH1-null / parental viability ratio 1.1.
Against SSBP3 (single stranded DNA binding protein 3), the entry reads CDH1-null / parental viability ratio 0.91.
Against CCDC172 (coiled-coil domain containing 172), the entry reads CDH1-null / parental viability ratio 1.1.
DYNC1H1 (dynein cytoplasmic 1 heavy chain 1) showed CDH1-null / parental viability ratio 1.01.
With knock-down of GPSM2 (G protein signaling modulator 2), the screen gave CDH1-null / parental viability ratio 0.83.
After knock-down of NME9 (NME/NM23 family member 9), the screen gave CDH1-null / parental viability ratio 1.08.
ASB6 (ankyrin repeat and SOCS box containing 6) showed CDH1-null / parental viability ratio 1.19.
Against EPHA8 (EPH receptor A8) the deposit lists CDH1-null / parental viability ratio 0.97.
For CENPK (centromere protein K), the values are CDH1-null / parental viability ratio 0.89.
For OR4X2 (olfactory receptor family 4 subfamily X member 2), the values are CDH1-null / parental viability ratio 1.03.
With knock-down of SRI (sorcin), the record shows CDH1-null / parental viability ratio 1.05.
Against PCDH15 (protocadherin related 15), the values are CDH1-null / parental viability ratio 0.99.
Silencing of RERG (RAS like estrogen regulated growth inhibitor) came out at: CDH1-null / parental viability ratio 1.24.
Silencing of IL27RA (interleukin 27 receptor subunit alpha) came out at: CDH1-null / parental viability ratio 1.33.
PRL (prolactin) gave CDH1-null / parental viability ratio 1.04.
With knock-down of OR52E4 (olfactory receptor family 52 subfamily E member 4), the screen gave CDH1-null / parental viability ratio 0.97.
Depletion of SETD7 (SET domain containing 7, histone lysine methyltransferase) gave: CDH1-null / parental viability ratio 1.16.
ZDHHC15 (zDHHC palmitoyltransferase 15) gave CDH1-null / parental viability ratio 0.88.
ZNF214 (zinc finger protein 214) gave CDH1-null / parental viability ratio 1.15.
After knock-down of IFNA13 (interferon alpha 13), the record shows CDH1-null / parental viability ratio 1.39.
Against INCA1 (inhibitor of CDK, cyclin A1 interacting protein 1), the values are CDH1-null / parental viability ratio 0.93.
Depletion of ZBTB38 (zinc finger and BTB domain containing 38) gave: CDH1-null / parental viability ratio 0.66.
With knock-down of ABCG1 (ATP binding cassette subfamily G member 1) the results were CDH1-null / parental viability ratio 0.96.
Depletion of SLC19A1 gave: CDH1-null / parental viability ratio 1.48.
For KIR2DL5A, the values are CDH1-null / parental viability ratio 1.15.
Silencing of TLE4 (TLE family member 4, transcriptional corepressor) gave: CDH1-null / parental viability ratio 0.93.
Silencing of MT1H (metallothionein 1H) gave: CDH1-null / parental viability ratio 1.06.
Knock-down of ROBO1 (roundabout guidance receptor 1) came out at: CDH1-null / parental viability ratio 0.85.
Against FAN1 (FANCD2 and FANCI associated nuclease 1) the deposit lists CDH1-null / parental viability ratio 0.82.
Knock-down of IBSP (integrin binding sialoprotein) came out at: CDH1-null / parental viability ratio 0.84.
Against POLDIP2 (DNA polymerase delta interacting protein 2), the values are CDH1-null / parental viability ratio 1.08.
With knock-down of ZNF385C (zinc finger protein 385C), the record shows CDH1-null / parental viability ratio 1.32.
With knock-down of ZFPL1 (zinc finger protein like 1), the screen gave CDH1-null / parental viability ratio 1.09.
For CRADD (CARD and death domain containing adaptor protein), the entry reads CDH1-null / parental viability ratio 1.5.
With knock-down of HEMGN (hemogen) the results were CDH1-null / parental viability ratio 0.97.

In a second layout: 3 of the entries above.
POLDIP2 (DNA polymerase delta interacting protein 2)
- CDH1-null / parental viability ratio: 1.08

ZNF385C (zinc finger protein 385C)
- CDH1-null / parental viability ratio: 1.32

ZFPL1 (zinc finger protein like 1)
- CDH1-null / parental viability ratio: 1.09
